Source: the supplement of paper PMC12823440, “Inhibitors supercharge kinase turnover through native proteolytic circuits” (Nature, 2025)
Counter-ions that a name gives are not always drawn. The list shows a part of the results. The calls rarely recur for the same compound in another form.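 Kinases were expressed as nanoluciferase fusions in K562 cells and luminescence was read every 4 h between 2 and 18 h as percent of control, DMSO set to 100% and a positive control to 0%. A time point counts as decreased when the signal drops significantly (2 sigma). The hit call is the authors' own, does not follow from the count of time points alone, and its rule is not shown.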

Amino acid sequences for entries named in this document (tags omitted).
UniProt Q16288, whole entry, looked up: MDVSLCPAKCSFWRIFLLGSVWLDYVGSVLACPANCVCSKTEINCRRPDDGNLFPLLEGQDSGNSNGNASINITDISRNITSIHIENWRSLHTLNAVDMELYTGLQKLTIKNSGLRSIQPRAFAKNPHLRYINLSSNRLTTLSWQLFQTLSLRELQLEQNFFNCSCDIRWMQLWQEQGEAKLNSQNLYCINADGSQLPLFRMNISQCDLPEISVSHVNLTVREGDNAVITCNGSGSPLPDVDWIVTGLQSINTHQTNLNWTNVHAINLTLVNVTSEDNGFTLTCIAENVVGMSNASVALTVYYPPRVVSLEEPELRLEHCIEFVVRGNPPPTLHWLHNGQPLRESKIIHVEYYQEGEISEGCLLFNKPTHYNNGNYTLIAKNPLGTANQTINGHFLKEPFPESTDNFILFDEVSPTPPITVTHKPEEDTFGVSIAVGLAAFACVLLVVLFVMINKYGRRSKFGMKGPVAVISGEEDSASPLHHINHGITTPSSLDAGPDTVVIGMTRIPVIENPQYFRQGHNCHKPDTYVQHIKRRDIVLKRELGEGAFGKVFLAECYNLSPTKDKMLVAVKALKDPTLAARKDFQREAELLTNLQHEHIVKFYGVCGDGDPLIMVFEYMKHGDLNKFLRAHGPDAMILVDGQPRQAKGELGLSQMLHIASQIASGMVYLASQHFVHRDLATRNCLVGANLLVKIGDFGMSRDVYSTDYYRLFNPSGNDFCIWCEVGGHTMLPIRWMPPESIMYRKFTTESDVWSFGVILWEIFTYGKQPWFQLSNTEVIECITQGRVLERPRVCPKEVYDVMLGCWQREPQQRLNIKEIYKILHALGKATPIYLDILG

biological target: NTRK3 (UniProt Q16288); assay: kinase-Nluc reporter destabilization hit call (1 = scored as downregulated) (binary); higher = compound decreases kinase abundance; settings: K562; 2-18 h

kinase-Nluc reporter destabilization hit call, inactive:
CC(C1CC1)n1cnc2c(NCc3cccc(C(F)(F)F)c3)nc(NCCN(C)C)nc21 (stereo not drawn) (10 µM) 0
COc1cc2nc(NC3CC3)nc(NC3CCN(C(C)C)CC3)c2cc1OC (10 µM) 0
Cc1nn(CC(F)(F)F)cc1Nc1ncc(Br)c(NCc2ccc(S(N)(=O)=O)cc2)n1 (10 µM) 0
N#C/C(=C/c1ccc(O)c(O)c1)C(=O)N1CCc2ccccc21 [Tyrphostin AG 528] (10 µM) 0
Cc1nc2c(NCc3cccc(S(C)(=O)=O)c3)nccn2c1-c1ccc(O)c(F)c1 (10 µM) 0
CN(C)c1cc[n+](Cc2ccc(OCCOc3ccc(C[n+]4ccc(N(C)C)cc4)cc3)cc2)cc1 (10 µM) 0
O=C1CCC(N2C(=O)c3cccc(OCCCCCOc4ccc(CC(=O)Nc5cc(C6CCC6)[nH]n5)cc4)c3C2=O)C(=O)N1 (stereo not drawn) [PROTAC CDK9 Degrader-1] (10 µM) 0
CCOc1cc(=O)[nH]cc1-c1ccc(CC(=O)Nc2cc(C(C)(C)C(F)(F)F)on2)c(F)c1 (10 µM) 0
O=C(O)/C=C(\CCc1ccc(Cl)cc1)c1ccccc1 (10 µM) 0
CCc1c(C(=O)NNC(=O)[C@H](O)c2cc(F)cc(F)c2)ccc(O)c1C (10 µM) 0
O=c1cc(N2CCOCC2)oc2c(-c3cccc4c3sc3ccccc34)cccc12 (10 µM) 0
CN1CCN(c2ccc(-n3cc(-c4ccncc4OCC4CCNCC4)cn3)cc2)CC1 [MELK-8a (hydrochloride)] (10 µM) 0
Cc1ccc(C2CC(=O)NC(SCC(=O)Nc3nccs3)=C2C#N)cc1 (stereo not drawn) [Necrostatin-34] (10 µM) 0
CNc1cc2c(Nc3cccc(Br)c3)ncnc2cn1 (10 µM) 0
Cn1cc(-c2nc(N[C@@H]3CCCC[C@@H]3N)c(F)c3c2C(=O)NC3)cn1 [TAK-659 (hydrochloride)] (2 µM) 0
CC(=O)Nc1nc(C)c(-c2cc(C)c3c(c2)CN([C@@H](C)C2CC2)C3=O)s1 (10 µM) 0
CN(C)c1ccc(/C=C2\C(=O)Nc3ccccc32)c2ccccc12 (10 µM) 0
COc1ccc(-c2cc(=O)c3c(O)cc(O)cc3o2)cc1-c1c(O)cc(O)c2c(=O)cc(-c3ccc(O)cc3)oc12 [Bilobetin] (2.5 µM) 0
O=C(NCc1ccn[nH]1)c1cc([C@@H]2CCNC[C@H]2COc2ccc3c(c2)OCO3)ccc1F [GRK2-IN-1 (hydrochloride)] (10 µM) 0
Nc1ccc(C(=O)Nc2cccc(-c3nc(N4CCOCC4)c4oc5ncccc5c4n3)c2)cn1 (10 µM) 0
CCOC(=O)c1c(C)[nH]c(C=C2C(=O)Nc3ccccc32)c1C (10 µM) 0
CCCS(=O)(=O)N[C@H]1C[C@@H](N(C)c2ncnc3[nH]ccc23)C1 [Abrocitinib] (10 µM) 0
O=[N+]([O-])c1ccc(-c2nc(-c3ccc(F)cc3)c(-c3ccncc3)[nH]2)cc1 (10 µM) 0
O=C(O)c1c[nH]c2cc(Cl)c(-c3ccc(C4(O)CCC4)cc3)cc12 (10 µM) 0
CN1CCC(Nc2nc(Nc3ccc(Oc4ccccc4)cc3)c3c(=O)[nH]cc(Br)c3n2)CC1 (2.5 µM) 0
CO[C@]1(C(=O)N[C@@H](C)c2ccc(-n3cc(F)cn3)nc2)CC[C@H](c2nc(C)cc(Nc3cc(C)[nH]n3)n2)CC1 [Pralsetinib] (10 µM) 0
COc1c(Nc2ncc(Cl)c(N[C@H]3[C@@H](C(N)=O)[C@@H]4C=C[C@H]3C4)n2)ccc2c1CC[C@@H](N1CCOCC1)CC2 (10 µM) 0
CN1CCN(Cc2ccc(-c3cn(C4CCC(O)CC4)c4nc(NCCC5CC5)ncc34)cc2)CC1 (stereo not drawn) (2.5 µM) 0
C[C@@H]1COC(Nc2ccc3ncnc(Nc4ccc(OCc5nccs5)c(Cl)c4)c3c2)=N1 [Varlitinib] (10 µM) 0
CC(C)n1cnc2c(Nc3cccc(Cl)c3)nc(N[C@H]3CCCC[C@@H]3N)nc21 (2.5 µM) 0
Cc1n[nH]c2ncc(C(=O)N3CCC[C@H]3c3ccc(Cl)cc3)cc12 (10 µM) 0
COc1ccc2cc1Oc1ccc(cc1)C[C@H]1c3cc(c(OC)cc3CCN1C)Oc1c(O)c(OC)cc3c1[C@H](C2)N(C)CC3 [Fangchinoline] (2.5 µM) 0
CS[C@@]1(C(=O)Nc2ccc3[nH]nc(-c4ccc(OC(C)C)nc4)c3c2)CCN(CC(=O)N2CC=C(c3ccc(-c4ncn(C)n4)cc3)CC2)C1 (2.5 µM) 0
CC/C(=C(\c1ccccc1)c1ccc(OCCNC)cc1)c1ccccc1 [N-Desmethyltamoxifen (hydrochloride)] (2.5 µM) 0
CNC(=O)CN1CCC(Oc2cc3c(Nc4cccc(Cl)c4F)ncnc3cc2OC)CC1 [Sapitinib] (10 µM) 0
O=CN1CCN(c2ccc(C=C3C(=O)Nc4ccccc43)cc2)CC1 (10 µM) 0
CCCCC(=O)OCC(=O)[C@]1(O)Cc2c(O)c3c(c(O)c2[C@@H](O[C@H]2C[C@H](NC(=O)C(F)(F)F)[C@H](O)[C@H](C)O2)C1)C(=O)c1c(OC)cccc1C3=O [Valrubicin] (10 µM) 0
Fc1ccc(Cl)cc1-c1nc(Nc2ccncc2)c2nccnc2n1 (10 µM) 0

Nothing new here: an excerpt of the list.
kinase-Nluc reporter destabilization hit call, inactive:
CC(C)n1cnc2c(Nc3cccc(Cl)c3)nc(N[C@H]3CCCC[C@@H]3N)nc21 (2.5 µM) 0
Cc1n[nH]c2ncc(C(=O)N3CCC[C@H]3c3ccc(Cl)cc3)cc12 (10 µM) 0
COc1ccc2cc1Oc1ccc(cc1)C[C@H]1c3cc(c(OC)cc3CCN1C)Oc1c(O)c(OC)cc3c1[C@H](C2)N(C)CC3 [Fangchinoline] (2.5 µM) 0
